Measured values taken from doi:10.1101/2020.02.28.969832.
These are yes or no findings as the source states them, for the method shown. Binding seen in cells or lysates may run through a third protein. Binding can be weak; no strength is given. Where a sequence is shown, tags or fusion partners need not be part of it.

Tests used:
[1] = molecular target: T1, FLAG-Msr1 (mouse) (mouse) (UniProt P30204); experiment: co-IP
T1 sequence: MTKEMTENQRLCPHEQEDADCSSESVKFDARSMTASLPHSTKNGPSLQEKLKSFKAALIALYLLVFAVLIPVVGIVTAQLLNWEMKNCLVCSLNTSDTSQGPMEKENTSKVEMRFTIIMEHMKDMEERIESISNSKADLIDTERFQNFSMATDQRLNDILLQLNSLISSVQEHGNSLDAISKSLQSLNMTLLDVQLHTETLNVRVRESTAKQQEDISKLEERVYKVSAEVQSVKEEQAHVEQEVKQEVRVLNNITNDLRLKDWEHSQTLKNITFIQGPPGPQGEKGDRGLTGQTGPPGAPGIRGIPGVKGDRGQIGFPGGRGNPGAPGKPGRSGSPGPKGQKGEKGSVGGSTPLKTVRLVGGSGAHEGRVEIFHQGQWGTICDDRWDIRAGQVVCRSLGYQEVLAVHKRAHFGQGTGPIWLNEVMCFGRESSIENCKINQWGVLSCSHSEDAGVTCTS

[2] = molecular target: T2, FLAG-MSR1 (human), full-length (human) (UniProt P21757); experiment: co-IP
T2 sequence: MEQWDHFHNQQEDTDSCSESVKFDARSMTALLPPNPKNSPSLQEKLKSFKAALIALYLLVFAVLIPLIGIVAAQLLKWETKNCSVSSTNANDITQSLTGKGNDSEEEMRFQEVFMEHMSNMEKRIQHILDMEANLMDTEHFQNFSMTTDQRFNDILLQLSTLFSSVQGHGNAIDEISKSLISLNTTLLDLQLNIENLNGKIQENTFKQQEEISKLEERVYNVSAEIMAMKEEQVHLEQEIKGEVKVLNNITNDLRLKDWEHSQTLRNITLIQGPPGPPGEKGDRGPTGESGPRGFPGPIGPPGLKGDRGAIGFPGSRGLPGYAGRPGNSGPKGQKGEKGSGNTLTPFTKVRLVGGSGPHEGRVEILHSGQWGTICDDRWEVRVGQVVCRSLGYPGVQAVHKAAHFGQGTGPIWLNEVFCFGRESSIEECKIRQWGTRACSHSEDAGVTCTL

For “Myc-nsP1 (CHIKV LR2006-OPY1) (Chikungunya virus, strain LR2006-OPY1)”, the binding [1] was “binds” and the binding [2] was “binds”.
